# Measurements as given in PubChem BioAssay AID1671190 (National Center for Advancing Translational Sciences (NCATS), 2021).
# Amino acid sequences for entries named in this document (tags omitted). A change or cut given only in a name is not applied to a line headed by its entry.
# UniProt P18054: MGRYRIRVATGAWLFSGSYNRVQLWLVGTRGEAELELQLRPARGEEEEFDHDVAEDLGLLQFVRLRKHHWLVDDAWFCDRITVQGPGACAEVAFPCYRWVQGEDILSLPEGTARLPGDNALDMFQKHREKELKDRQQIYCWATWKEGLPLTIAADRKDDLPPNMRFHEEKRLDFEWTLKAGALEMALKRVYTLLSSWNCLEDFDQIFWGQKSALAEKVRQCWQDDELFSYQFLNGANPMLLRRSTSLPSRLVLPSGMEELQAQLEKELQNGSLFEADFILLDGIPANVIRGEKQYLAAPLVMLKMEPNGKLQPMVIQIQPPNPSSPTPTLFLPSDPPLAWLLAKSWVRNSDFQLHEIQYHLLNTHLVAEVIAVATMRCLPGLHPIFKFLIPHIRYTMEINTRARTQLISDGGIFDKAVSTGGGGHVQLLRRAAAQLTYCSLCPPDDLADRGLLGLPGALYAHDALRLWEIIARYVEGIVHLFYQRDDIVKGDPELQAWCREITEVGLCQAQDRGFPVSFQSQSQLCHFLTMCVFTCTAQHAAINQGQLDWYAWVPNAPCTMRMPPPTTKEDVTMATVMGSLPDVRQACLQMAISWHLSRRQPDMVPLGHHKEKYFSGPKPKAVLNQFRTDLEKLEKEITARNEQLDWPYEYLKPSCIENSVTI
# The campaign covered roughly 580,000 compounds. About 6,100 (1.1%) were called active. The shares of active, inactive and inconclusive entries below differ from those in the screen. Calls come from the whole dose curve; as a rule, active = well fitted inhibition curve with a large enough effect; inconclusive = small, poorly fitted or top-dose-only effect, or another doubt; inactive = no such curve, though single readings can be large or run the other way. Potencies of inconclusive entries are doubtful fits and often do not repeat.
# Target: Polyunsaturated fatty acid lipoxygenase ALOX12 (Homo sapiens) (UniProt P18054)
# Experiment: Primary qHTS assay for inhibitors of human arachidonate 12S-lipoxygenase (ALOX12): Round 2
# Details: purified 12hLO, xylenol orange hydroperoxide absorbance; activity change, negative = inhibition: at 108 µM (top of the series) unless noted
# How it was run: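 Purified human 12hLO (150 nM final) in 25 mM Hepes, 0.01% Triton X-100, pH 7.0 was preincubated 15 min at room temperature with compound. Then 40 uM arachidonic acid was added, 30 min. Hydroperoxide was read by Fe-XO absorbance ratio 573/405 nm.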
# % is set by controls: 0 for no effect and ±100 for the full control effect; potency is the fitted concentration of half-maximal effect.
SMILES,Potency,"activity change, negative = inhibition"
COc1cc(/C=C(\C#N)c2nc3c(s2)CC(C)CC3)ccc1O (configuration not stated),"inconclusive: 15.8 µM [inhibitor, full curve]",–
COc1ccc([C@H]2N[C@]3(CCCN(CC4CCCCC4)C3=O)[C@H]3C(=O)N(C)C(=O)[C@@H]23)cc1,"inconclusive: 17.8 µM [inhibitor, partial curve]",–
CCC1(C)Cc2c(C#N)c(N)n(-c3ccccc3)c(=S)c2CO1 (configuration not stated),"inconclusive: 25.1 µM [inhibitor, partial curve, poor fit]",–
Cc1cc2nc3n(c(=O)c2n1CC(=O)NCCC1=CCCCC1)CCC3,inactive,–
CCCNC(=O)CC1COCCN1C(=O)CCc1c(C)nc(=O)[nH]c1C (configuration not stated),inactive,–
Cc1ccc(C(=O)N/C(=C/c2ccc(C(C)C)cc2)C(=O)NCCCN2CCOCC2)cc1,"inconclusive: 112 µM [inhibitor, partial curve, poor fit]",–
Cc1cccc(C(=O)NCc2ccc(C)s2)n1,"inconclusive: 44.7 µM [inhibitor, partial curve, poor fit]",–
CCOC(=O)c1c(-c2ccc(C)cc2)csc1NC(=O)C1CC=CCC1C(=O)O (configuration not stated),inactive,–
OC(c1cccc(C(F)(F)F)c1)c1nc(Nc2ccc3c(c2)OCO3)n[nH]1 (configuration not stated),"inconclusive: 63.1 µM [inhibitor, partial curve]",–
CNc1nc(-c2ccc3c(c2)CCN3C(=O)c2ccccc2C)cs1,"inconclusive: 0.282 µM [inhibitor, full curve, poor fit]",–
CC(CNC(C)(C)CO)c1ccccc1 (configuration not stated),inactive,–
CN(C)CCCOCC1(C)COc2ccc(C(=O)Nc3ccc(F)c(Cl)c3)cc2N1 (configuration not stated),"inconclusive: 44.7 µM [inhibitor, partial curve]",–
CCOC(=O)c1c(C)[nH]c(C(=O)COc2ccc3c(C)cc(=O)oc3c2)c1C,inactive,–
CCCCN(C)Cc1ccc(OCc2ccccc2)c(OC)c1,"inconclusive: 0.316 µM [inhibitor, full curve, poor fit]",–
COc1ccc2oc(=O)c(/C(C)=N/Nc3ccccc3)cc2c1,active: 31.6 µM,–
COc1cc(CNc2nccc3c(=O)cc(N4CCOCC4)oc23)cc(OC)c1,"inconclusive: 56.2 µM [inhibitor, full curve, poor fit]",–
Cc1cc(C)cc(NC(=O)c2nn(CC(C)C)c(=O)c3ccccc23)c1,inactive,–
CCc1nonc1NC(=O)c1oc2cc(C)c(C)cc2c1C,inactive,–
O=C(Cn1cnc2ccccc2c1=O)OCC(=O)c1ccccc1,inactive,–
COc1ccc(-n2nc(C3CCCN(C(=O)c4ccc(C(F)(F)F)cc4)C3)[nH]c2=O)cc1 (configuration not stated),inactive,–
COc1ccc(C(=O)Oc2cc(C)ccc2C(C)C)cc1Br,inactive,–
CCOC(=O)c1sc(NC(=O)CC[C@H]2NC(=O)c3ccccc3NC2=O)nc1C,–,inconclusive: -30.4% [inhibitor]
CCOC(=O)C1(Cc2cccc(OC)c2)CCCNC1 (configuration not stated),inactive,–

# Single records (already shown).
# `Cc1cc2nc3n(c(=O)c2n1CC(=O)NCCC1=CCCCC1)CCC3` as listed: Potency: inactive
# `COc1ccc2oc(=O)c(/C(C)=N/Nc3ccccc3)cc2c1` as listed: Potency: active: 31.6 µM
# `COc1cc(/C=C(\C#N)c2nc3c(s2)CC(C)CC3)ccc1O` (configuration not stated) as listed: Potency: inconclusive: 15.8 µM [inhibitor, full curve]

# Carrying on.

SMILES,Potency,"activity change, negative = inhibition"
O=S(=O)(NCc1ccc(F)cc1)c1ccc2[nH]c3c(c2c1)CCCC3,"inconclusive: 79.4 µM [inhibitor, partial curve, poor fit]",–
Cc1cccc(NC(=O)CSc2ncc(CO)n2CC(=O)NC2CC2)c1C,inactive,–
O=C(Nc1cccc(F)c1)N1CCC2(CC1)CCN(C(=O)c1cccc(F)c1)CC2,inactive,–
Cc1ccc2c(c1)C(CS(=O)(=O)NCCc1ccccc1)NC2 (configuration not stated),"inconclusive: 89.1 µM [inhibitor, single point]",–
O=C(Nc1ccc(Cl)cc1)c1ccccc1OCC1CCCO1 (configuration not stated),inactive,–
CCCCCCNC(N)=S,"inconclusive: 39.8 µM [inhibitor, partial curve, poor fit]",–
COc1ccc(C(=O)Oc2ccc(C(c3c(C)[nH][nH]c3=O)c3c(C)[nH][nH]c3=O)cc2)cc1,"inconclusive: 50.1 µM [inhibitor, partial curve, poor fit]",–
Fc1ccccc1CSc1nc2ccccc2[nH]1,inactive,–
COc1ccc(S(=O)(=O)Cc2ccc(C(=O)NCCc3ccc(S(N)(=O)=O)cc3)o2)cc1,"inconclusive: 20 µM [inhibitor, partial curve, poor fit]",–
CNC[C@@H]1Oc2cc(Br)ccc2S(=O)(=O)N([C@@H](C)CO)C[C@@H]1C,"inconclusive: 31.6 µM [inhibitor, partial curve, poor fit]",–
COc1cccc(-n2c(SCC(N)=O)nc3c(oc4ccccc43)c2=O)c1,"inconclusive: 126 µM [inhibitor, partial curve, poor fit]",–
O=C1NC(c2ccccc2)C(C(=O)c2cccs2)=C1O (configuration not stated),"inconclusive: 22.4 µM [inhibitor, partial curve, poor fit]",–
Cc1ccc(N2CC(c3noc(C4(c5ccccc5)CC4)n3)CC2=O)cc1 (configuration not stated),"inconclusive: 50.1 µM [inhibitor, single point]",–
CCNc1nc(NCC)nc(N(CC)C(N)=S)n1,"inconclusive: 44.7 µM [inhibitor, partial curve, poor fit]",–
COC(=O)c1ccc2nc(-c3ccc(C#N)cc3)c(Cc3cccc(Cl)c3)n2c1,"inconclusive: 44.7 µM [inhibitor, single point]",–
Cc1nn(Cc2c(F)c(F)c(F)c(F)c2F)c(C)c1NC(=O)c1nn(C)cc1Br,inactive,–
COc1ncccc1-c1cccc(COc2ccc3c(cnn3CC[S+](C)(=O)[O-])c2)c1,inactive,–
CC1CCN(Cc2cc(=O)oc3ccc(C(C)C)cc23)CC1,"inconclusive: 39.8 µM [inhibitor, partial curve, poor fit]",–
CCc1ccc(NC(=O)CSc2nnc(-c3ccccn3)n2C)cc1,inactive,–
O=C1N=C(N2CCOCC2)S/C1=C/c1cc2c(cc1[N+](=O)[O-])OCO2,"inconclusive: 141 µM [inhibitor, partial curve, poor fit]",–
CC(=O)c1ccc(NC(=S)Nc2cccc3ccccc23)cc1,"inconclusive: 44.7 µM [inhibitor, partial curve, poor fit]",–
CC(C)c1ccc(COc2ccc(Cl)cc2C(N)=O)cc1,"inconclusive: 28.2 µM [inhibitor, full curve, poor fit]",–
COCCn1c(C)cc(/C=N/n2cnnc2SCc2ccc(Cl)cc2)c1C,inactive,–

SMILES,Potency,"activity change, negative = inhibition"
O=C(c1ccoc1)N1CCCCCC1c1nc(-c2cccnc2)no1 (configuration not stated),inactive,–
CC1CCc2c(sc(NC(=O)CSc3nc(N)cc(=O)[nH]3)c2C(N)=O)C1 (configuration not stated),"inconclusive: 141 µM [inhibitor, partial curve, poor fit]",–
CCCCCCNC(=O)O[C@H]1C[C@@H]2C(=O)N(c3ccccc3)C(=O)[C@@H]2[C@@H]2CN(S(=O)(=O)c3ccc(C)cc3)C[C@]12O,"inconclusive: 70.8 µM [inhibitor, partial curve, poor fit]",–
Cc1cc(-c2csc3nc[nH]c(=S)c23)cc(C)c1C,active: 28.2 µM,–
CO[C@H]1C=CO[C@@]2(C)Oc3c(C)c(O)c4c(O)c(c(C=NN5CCN(C)CC5)c(O)c4c3C2=O)NC(=O)C(C)=CC=CC(C)[C@H](O)[C@@H](C)[C@@H](O)[C@@H](C)[C@@H](OC(C)=O)[C@H]1C (some centres not stated),"inconclusive: 44.7 µM [inhibitor, partial curve, poor fit]",–
O=[N+]([O-])c1ccc(NCCNCCOc2nonc2-c2ccccc2)c([N+](=O)[O-])c1,inactive,–
O=C(CCn1ccn2nc3c(c2c1=O)CCCC3)Nc1ccc(F)cc1,"inconclusive: 0.891 µM [inhibitor, full curve, poor fit]",–
CN(C)c1nc(N)nc(CSc2nnnn2-c2cccc3ccccc23)n1,–,inconclusive: -33.2% [inhibitor]
CCCCSc1nc(-c2cccc(OC)c2)nc2c1Cc1c(CO)cnc(C)c1O2,"inconclusive: 63.1 µM [inhibitor, partial curve, poor fit]",–
CCCCn1cnc2c(c(-c3ccccc3)c(-c3ccccc3)n2Cc2ccco2)c1=N,"inconclusive: 50.1 µM [inhibitor, single point]",–
COCCCN1C(=O)C(=O)/C(=C(/O)c2ccc(S(=O)(=O)N3CCOCC3)cc2)C1c1cccc(Cl)c1 (configuration not stated),"inconclusive: 35.5 µM [inhibitor, partial curve, poor fit]",–
O=C(NCc1nnc2n1C(C(=O)O)CC2)c1ccccc1 (configuration not stated),"inconclusive: 14.1 µM [inhibitor, full curve]",–
CC1CCC(NC(=O)c2ccccc2SCC#N)CC1 (configuration not stated),"inconclusive: 35.5 µM [inhibitor, partial curve]",–
CCOC(=O)c1[nH]c(C)c(C(=O)/C=C/c2ccc(C(=O)O)cc2)c1C,inactive,–
COc1ccc2c(c1)C(=O)C(=O)N2CCS(=O)(=O)c1ccccc1,inactive,–
Cc1ccccc1NC(=S)NC(NC(=O)N(C)C)C(Cl)(Cl)Cl (configuration not stated),"inconclusive: 50.1 µM [inhibitor, partial curve, poor fit]",–
COc1ccc(-c2ccc3c(c2)C(=O)N2CC[C@H](NC(=O)CSC)C[C@H]2C(=O)N3)cc1,inactive,–
COCc1cn(C[C@H]2C[C@@H](NC(=O)Nc3cccnc3)[C@H](O)[C@@H]2O)nn1,"inconclusive: 14.1 µM [inhibitor, full curve]",–
COc1ccc2[nH]cc(CCNc3ccnc(-c4ccoc4)n3)c2c1,"inconclusive: 44.7 µM [inhibitor, partial curve, poor fit]",–
CCn1nccc1C(=O)N1CCC(N2C[C@H](O)C[C@H]2C(=O)NC2CCCCC2)CC1,inactive,–
N#Cc1cc(C(=O)c2cc(F)ccc2O)cn(C2CCCCC2)c1=O,"inconclusive: 44.7 µM [inhibitor, partial curve, poor fit]",–
